Several values for one entry are separate records, joined by “and”; a condition that tells them apart may be missing. Equal entries are not always repeated. Among all 310,000 compounds or so, about 17,000 (5.5%) were called active. Inconclusive results, whose numbers are uncertain, are shown with a selection of clear calls. Calls follow the shape of the dose curve; as a rule, active = well fitted inhibition curve with a large enough effect; inconclusive = small, poorly fitted or top-dose-only effect, or effect the other way; inactive = no such curve, though single readings can be large or run the other way. Potencies of inconclusive entries are doubtful fits and often do not repeat.
The molecules below were run against Nuclear receptor ROR-gamma (Mus musculus) (UniProt P51450) (assay: qHTS for inhibitors of ROR gamma transcriptional activity). Settings: Drosophila S2 Gal4-RORgamma UAS-luciferase reporter, 20 h; activity change, negative = inhibition: at 53.6 µM (top of the series).
Summary of the method: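 A Gal4/UAS one-hybrid system in insect cells: metallothionein-promoter Gal4–ROR gamma fusion plus Photinus luciferase reporter. Copper sulfate 700 uM final, 20 hr ambient incubation, luminescent detection after 10 min with reagent.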
% is scaled to controls: 0 for no effect and ±100 for the full control effect; potency is read from the fitted curve at half-maximal effect.
Also: nearly all actives have a fitted effect of over 60% in size.

The chains behind the UniProt entries cited, without tags or fusion partners. Where a name states a change or a piece, a line headed by the entry shows the natural chain unless it says otherwise.
UniProt P51450: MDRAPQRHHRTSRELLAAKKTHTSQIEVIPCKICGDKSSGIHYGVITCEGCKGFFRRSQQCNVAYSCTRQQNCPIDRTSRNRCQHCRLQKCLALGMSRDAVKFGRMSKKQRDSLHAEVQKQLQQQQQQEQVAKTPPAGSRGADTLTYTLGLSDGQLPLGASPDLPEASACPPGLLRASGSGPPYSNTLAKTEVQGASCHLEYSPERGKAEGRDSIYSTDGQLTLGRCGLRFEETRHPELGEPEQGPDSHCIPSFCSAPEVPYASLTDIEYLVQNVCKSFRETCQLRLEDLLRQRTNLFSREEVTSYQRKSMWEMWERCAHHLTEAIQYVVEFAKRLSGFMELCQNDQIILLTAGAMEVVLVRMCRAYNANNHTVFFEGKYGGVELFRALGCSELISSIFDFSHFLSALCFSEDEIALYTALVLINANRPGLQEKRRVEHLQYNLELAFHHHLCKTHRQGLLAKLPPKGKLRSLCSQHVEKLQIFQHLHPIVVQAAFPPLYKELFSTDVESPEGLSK

Potency, active:
Cc1ccc(CSc2nnc(SCC(=O)N/N=C/C=C/c3ccccc3[N+](=O)[O-])s2)cc1 11.2 µM
COCCCNC(=S)NCCNc1nc2cc(C)c(C)cc2cc1C#N 15.8 µM
CC(C)Oc1ccc(Cn2c(-c3ccco3)n[nH]c2=S)cc1 2.82 µM
O=C(COc1ccccc1)Nc1nnc(-c2ccco2)o1 15.8 µM
COc1cc(OC)cc(C(=O)NNC(=O)c2ccccn2)c1 4.47 µM
O=C(NC(=S)N1CCN(C/C=C/c2ccccc2)CC1)c1ccc(Cl)nc1 0.112 µM
CCN(CC)c1ccc(NC(=S)NC(=O)c2ccco2)cc1 3.98 µM
Cc1cc(C)c(Cn2cnc3ccccc32)c(C)c1 5.62 µM
CCN1/C(=C/C=C/c2oc3ccc(-c4ccccc4)cc3[n+]2CC)Oc2ccc(-c3ccccc3)cc21 12.6 µM
CC(C)(C)c1ccc(/C=C/C(=O)NC2=NCCS2)cc1 2.82 µM
O=C(COc1ccccc1Cl)c1ccc2c(c1)CCCC2 14.1 µM
CCN(CC)CCOC(=O)c1ccc(NC(=O)CCCN2C(=O)/C(=C/c3cccs3)SC2=S)cc1 22.4 µM
CCOc1ccc(NC(=S)NC(=O)C2CCCC2)cc1 1.12 µM
S=c1nc2ccccc2c2nc(-c3ccccc3Br)[nH]n12 0.447 µM
CC(C(=O)O)c1ccc(N2Cc3ccccc3C2=O)cc1 (stereo not drawn) 5.01 µM and 1.78 µM

Structures listed so far that have a halogen (3):
Potency, active:
O=C(NC(=S)N1CCN(C/C=C/c2ccccc2)CC1)c1ccc(Cl)nc1 0.112 µM
O=C(COc1ccccc1Cl)c1ccc2c(c1)CCCC2 14.1 µM
S=c1nc2ccccc2c2nc(-c3ccccc3Br)[nH]n12 0.447 µM

Next part:

Potency, inconclusive:
CCc1ccc(C(=O)Cn2ccsc2=N)cc1 15.8 µM [inhibitor, single point]
CCNC(=S)NS(=O)(=O)c1ccc(C)cc1 14.1 µM [inhibitor, single point]
Cc1ccccc1OCCCC(=O)Nc1ccc(Br)cc1 12.6 µM [activator, single point]
CCC(C)(C)n1nnnc1C(c1ccncc1)N1CCN(c2cccc(OC)c2)CC1 (stereo not drawn) 6.31 µM [activator, single point]
COc1cc(OC)c(NS(=O)(=O)c2ccc3c(c2)NC(=O)CO3)cc1Cl 22.4 µM [activator, single point]
O=C(CSc1ccc2ccccc2c1)NCCc1ccc(O)c(O)c1 10 µM [inhibitor, partial curve, poor fit]
Cc1c(CCC(=O)O)c(=O)oc2cc3oc4c(c3cc12)CCCC4 1.26 µM [inhibitor, partial curve]
CCN1CCCC1CNC(=O)c1ccc2c(c1)NC(=O)/C(=C\c1ccc(C)cc1)S2 (stereo not drawn) 35.5 µM [inhibitor, single point]
CC(=O)Oc1c(I)cc(I)cc1C(=O)Nc1ccc(Cl)cc1 20 µM [inhibitor, single point]
CCOC(=O)C1=C(C)N(CCCCCC(=O)O)C(=O)NC1c1ccccc1OC(=O)c1cccs1 (stereo not drawn) 20 µM [activator, single point]
O=C(c1ccc2ccccc2c1)c1c[nH]cc1-c1ccccc1 5.62 µM [activator, single point]
Cc1c(NC(=O)/C=C/c2cn(-c3ccccc3)nc2-c2ccccc2)c(=O)n(-c2ccccc2)n1C 10 µM [activator, partial curve]
CCn1c(=N)n(CC(=O)OC)c2ccccc21 0.631 µM [inhibitor, single point]
CC(=O)Nc1ccc2ccc3cccc4ccc1c2c34 39.8 µM [inhibitor, partial curve, poor fit]
COC(=O)c1c(NC(=O)/C=C/C(=O)O)sc(C)c1-c1ccc(C(C)C)cc1 35.5 µM [inhibitor, single point]
O=C(CSc1nc(-c2ccccc2)cs1)NCc1ccco1 22.4 µM [activator, single point]
CCCN1CCC(NC(=O)Nc2cccc3ccccc23)CC1 8.91 µM [activator, partial curve]
O=C(NCCSCc1ccccc1)c1ccccc1 12.6 µM [activator, single point]
COC(=O)Cc1ccc(NC(=S)NCC(C)C)cc1 25.1 µM [inhibitor, single point]
Cc1ccc(C(=O)Nc2ccc3c(c2)OCO3)cc1 35.5 µM [inhibitor, single point]
Cn1nnc(NC(=S)NC(=O)c2ccco2)n1 12.6 µM [inhibitor, single point]
O=C(/C=C/c1ccc([N+](=O)[O-])cc1)NC1CC2CCC1C2 (stereo not drawn) 2.82 µM [activator, full curve, poor fit]
O=C(NCCc1cccc(Cl)c1)c1cccc([N+](=O)[O-])c1 17.8 µM [activator, single point]
O=C(C1=C(O)C(=O)N(CCc2ccccc2)C1c1cccnc1)c1ccco1 (stereo not drawn) 7.94 µM [inhibitor, partial curve]
COC(=O)C1=C(N)Oc2c(oc(CO)cc2=O)C1c1ccccc1F (stereo not drawn) 5.62 µM [inhibitor, full curve, poor fit]
COC(=O)c1ccccc1NC(=O)C1CCN(c2ncnc3c2nc2n3CCCCC2)CC1 0.891 µM [inhibitor, full curve]
COc1ccc(S(=O)(=O)N2CCCC2=O)cc1N(C)S(C)(=O)=O 3.98 µM [inhibitor, full curve]
CCOc1ccc(NCCC(=O)c2ccc3c(c2)OCO3)cc1 35.5 µM [inhibitor, single point]
O=S(=O)(Nc1ccc2c(c1)nc1n2CCN(Cc2ccccc2)C1)c1ccccc1 1.58 µM [inhibitor, partial curve, poor fit]
CCCOc1ccc([C@@H]2C3CN(C(=O)OCC)CC=C3C(C#N)=C(N)C2(C#N)C#N)cc1OC (stereo partly drawn) 35.5 µM [inhibitor, single point]
O=C(CCC(=O)N(CC(=O)NC1CCCCC1)c1ccc(F)cc1)Nc1nccs1 35.5 µM [activator, single point]
CC1(C)CC(=O)C2=C(C1)N1C(=C(C#N)C2c2ccc(Cl)cc2)N=C(N)c2ccccc21 (stereo not drawn) 11.2 µM [activator, partial curve]
O=C(CN1CCc2cc3c(cc2C1)OCCCO3)Nc1c(F)cccc1F 17.8 µM [activator, single point]
CC(=O)C(Cl)C(=O)Nc1ccccc1 (stereo not drawn) 35.5 µM [inhibitor, single point]
COC(=O)C(=Cc1ccc(-c2ccsc2C(=O)OC)o1)C(=O)OC 35.5 µM [inhibitor, single point]
O=C(Nc1nccs1)c1cccc(S(=O)(=O)N2CCCCC2)c1 35.5 µM [inhibitor, single point]
COc1cnc(-c2ccccc2)nc1OC 12.6 µM [inhibitor, single point]
Cc1ccc(-n2ncc3c(NCc4cccnc4)ncnc32)c(C)c1 28.2 µM [inhibitor, single point]
O=C(Nc1ccccc1)Nc1ccc(Oc2cccnc2)nc1 10 µM [activator, partial curve]

Activity change, negative = inhibition, inactive:
COc1ccc(-c2cc(C(=O)NCc3ccco3)no2)cc1OC 44.4%
CCOc1ccc(N/C(N)=N/c2nc(CSc3nnc(C)s3)cc(=O)[nH]2)cc1 -0.478%
Cc1nc(CS(=O)(=O)c2ccc(Cl)cc2)cc(N2CCOCC2)n1 -6.41%
Cc1ccccc1S(=O)(=O)Cc1ccc(C(=O)NCCCN2CCC(C)CC2)o1 -3.63%
O=C(NC(=O)N1CCN(c2ccc(F)cc2)CC1)c1ccccc1 6.47%
O=C(O)/C=C/C(=O)Nc1ccc(OCc2ccccc2)cc1 2.62%
CCN1C(=O)/C(=C/c2cn(C)nc2C)SC1=S 0.0054%
COC(=O)Nc1sc2c(c1C(=O)N1CCOCC1)CCC(C)C2 (stereo not drawn) 22.5%
CC(C)Sc1nc2c(c(=O)[nH]c(=O)n2C)n1CCc1ccccc1 -23%
CC(=O)Nc1ccc2nc(-c3cccs3)[nH]c2c1 -26.5%
COCCN(CC1CCCN(C2Cc3ccccc3C2)C1)C(=O)c1ccc(C(C)=O)cc1 (stereo not drawn) 9.81%
Oc1ccc(N2CCN(c3nnnn3-c3ccccc3)CC2)cc1 -13.6%
O=C(O)c1ccc(N2CCN(Cc3ccc4c(c3)OCO4)CC2)c([N+](=O)[O-])c1 10.9%
Cc1cc(=O)nc2c3ccccc3n(C(C)C(=O)NCCN3CCOCC3)n12 (stereo not drawn) -31.8%
O=C1c2cccnc2C(=O)N1Cc1ccc(Cl)cc1 1.51%
c1cc2c(cc1C1=Nn3c(nnc3C3CCCCC3)SC1)OCO2 1.92%
N=C1/C(=C\c2ccc(SCc3ccccc3)o2)C(=O)N=C2SC=NN12 -10%
C(=N\N(c1ccccc1)c1ccccc1)/c1ccc2c(c1)OCO2 36.5%
COc1ccc(C)cc1Nc1nc(-c2ccccc2O)nc2ccccc12 1.31%
CC(=O)N1CCC2(CC1)CC(=O)c1cc(OCC(=O)NCc3ccco3)ccc1O2 21%
CCOC(=O)C1CCCN(Cc2nc(CC3CC3)no2)C1 (stereo not drawn) 44.9%
CCN(c1ccccc1)c1cc(C)nc2nc(C)nn12 -12.9%
CCCC1(c2ccccc2)NC(=O)N(CC(=O)Nc2ccccc2C(F)(F)F)C1=O (stereo not drawn) 18.9%
CCOC(=O)c1ccc(NC(=O)CSc2nnc(CC)o2)cc1 0.124%

2 records picked at random from those above, as already listed:
Activity change, negative = inhibition, inactive:
Oc1ccc(N2CCN(c3nnnn3-c3ccccc3)CC2)cc1 -13.6%
COc1ccc(-c2cc(C(=O)NCc3ccco3)no2)cc1OC 44.4%

Source: PubChem BioAssay AID2551 (National Center for Advancing Translational Sciences (NCATS), 2010)
